Values of other authors, collected in patent US20170071839A1, “Personal care and medicinal products incorporating organosulfur groups” (priority 2015, published 2017).
Entries after “also recorded” stand apart in the source; their conditions may differ.

Details: in the presence of cysteine

SMILES | Reaction with Cysteine Product (moles)
C=CCS [AllylSH, AllylThiol] | SAMC (0.8)
C=CCSSCC=C [DADS, Diallyl Disulfide] | AllylSH (1); also recorded: SAMC (1),
